Assay: Cytotoxicity, MTS method, Vero CCL-81
Assay type: cell-based
Details: African monkey, Vero CCL-81 cells

## CCC(CC)COC(=O)[C@H](C)N[P@](=O)(OC[C@H]1O[C@@](C#N)(c2ccc3c(N)ncnn23)[C@H](O)[C@@H]1O)Oc1ccccc1 [Remdesivir]
  CC50: > 100 µM

Source: paper PMC8357487 (Current Research in Pharmacology and Drug Discovery, 2021)
